# Measurements reported in PubChem BioAssay AID1259415 (National Center for Advancing Translational Sciences (NCATS), 2018).
# The whole screen tested about 410,000 compounds, of which about 18,000 (4.4%) were called active. This list was built around the results that the source calls inconclusive (neither active nor inactive); the mix of calls is not that of the screen. Cut-off read from the data, not from the text of the source: active = activity change below about -60%; inconclusive = no clear call, values can overlap the other calls; inactive = above about -39%.
# Assay: qHTS Assay for inhibitors of the human cytomegalovirus (HCMV)
# Conditions: HFF cells, HCMV-luciferase reporter, 72 h; at 57.5 µM; active compounds read low
# Outline: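 Luciferase read-out from HCMV-luciferase-infected HFFs (MOI 1 PFU/cell) 72 h post infection at 37C; compounds added after 16 h cell attachment; activity normalized between buffer-only basal and Salinomycin (10uM) inhibitor controls.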
# % is set by controls: 0 for no effect and ±100 for the full control effect.
row,Structure (SMILES),"activity change, negative = inhibition"
1,Cc1ccc(-n2c(C)csc2=N)cc1,inactive: 35.3%
2,CC(C)C(=O)Nc1ccc(Br)cc1Cl,inconclusive: -40.3%
3,COc1cccc(Cn2cc(C(=O)c3ccc(Cl)cc3)c(=O)c3ccccc32)c1,inactive: -35.1%
4,COc1ccc2[nH]cc(CCN=C(NC(=O)c3ccccc3OC)Nc3nc(C)cc(C)n3)c2c1,active: -95.8%
5,Cc1ccccc1OCC(=O)Nc1ccccc1-c1ccccc1,inconclusive: -51.6%
6,COc1ccc(-n2c(=O)c3c4c(sc3n(CC(N)=O)c2=O)CCCCC4)cc1,inactive: 8.28%
7,O=C(Nc1ccncc1)c1ccc(Cl)c(S(=O)(=O)N2CCc3ccccc32)c1,active: -68.6%
8,C=CCn1cnc2c(nnn2-c2ccc(C)c(C)c2)c1=O,inconclusive: -45.5%
9,COc1ccc(C2=NOC3(CC(=O)N(c4ccc(F)cc4)C3=O)C2)cc1 (centres undefined),inactive: 27.1%
10,COc1ccc(-c2csc(NC(=O)Cc3cc(OC)c(OC)c(OC)c3)n2)cc1OC,inconclusive: -41.4%
11,O=C(CNC(=O)c1ccco1)N=Nc1c(O)[nH]c2ccc([N+](=O)[O-])cc12,inactive: 30.5%
12,COc1ccc(C(=O)N/N=C/c2ccccn2)cc1,inactive: 6.34%
13,CC(NCc1cc(Br)ccc1OCC(=O)NCc1ccccc1)c1ccccc1 (centres undefined),active: -76.4%
14,O=C(Nc1cccc(S(=O)(=O)N2CCOCC2)c1)c1cccc(S(=O)(=O)N2CCCC2)c1,inactive: -11.8%
15,Cc1cccn2c(=O)c3cc(C(=O)NCCc4ccccc4)c(=N)n(Cc4ccco4)c3nc12,inconclusive: -58.7%
16,COc1ccc(NC(=O)C2CCN(S(=O)(=O)c3c(C)noc3/C=C/c3cccs3)CC2)cc1Cl,inactive: 5.86%
17,COc1cccc(CNS(=O)(=O)c2ccc3c(c2)CC(C)N3C(=O)C2CC2)c1 (centres undefined),inconclusive: -48.7%
18,Cc1nc2cccnc2n1C1CCN(C(=O)Nc2ccc(Cl)cc2)CC1,inactive: 8.51%
19,O=C(CN1CCOCC1)N/N=C/C=C/c1ccccc1,inactive: 11.8%
20,O=C1CCC[C@@H]2[C@@H](Cc3ccccc3)[C@H](N3CCN(c4ccccc4)CC3)C[C@@H]3CCN1[C@@H]32,active: -79.7%
21,CCc1c(C)sc2c1CCN(Cc1ccccc1F)C2c1ccccc1 (centres undefined),active: -105%
22,O=S(Cc1cc(Oc2ccccc2)nc(-c2ccccc2)n1)c1ccccc1 (centres undefined),inconclusive: -43.3%
23,COc1ccc(C(=O)NC2CCCc3c2cnn3-c2ccccc2F)o1 (centres undefined),inconclusive: -43.6%
24,Cc1ccc(NC(=O)CCc2c[nH]c3ccccc23)nc1,active: -73.6%

# Some of the entries so far, with bars between the fields:
row | Structure (SMILES) | activity change, negative = inhibition
20 | O=C1CCC[C@@H]2[C@@H](Cc3ccccc3)[C@H](N3CCN(c4ccccc4)CC3)C[C@@H]3CCN1[C@@H]32 | active: -79.7%
21 | CCc1c(C)sc2c1CCN(Cc1ccccc1F)C2c1ccccc1 (centres undefined) | active: -105%
